Each sequence was assayed on human beta cell granules (assay: Mass spectrometry of C-peptide fragments in human beta cell granules).

% identification in human samples (n = 6), 100%:
EAEDLQVGQVELGGGPGAGSLQPLALEGS (listed as Homo sapiens) [SEQ ID NO: 46, C-peptide fragment C1 to C29 found in human beta cell granules]
EAEDLQVGQVELGGGPGAGSLQ (listed as Homo sapiens) [SEQ ID NO: 39, C-peptide fragment C1 to C22 found in human beta cell granules]
EAEDLQVGQVELGGGPGAGSLQPLALE (listed as Homo sapiens) [SEQ ID NO: 44, C-peptide fragment C1 to C27 found in human beta cell granules]
EAEDLQVGQVELGGGPGAGSLQPLAL (listed as Homo sapiens) [SEQ ID NO: 43, C-peptide fragment C1 to C26 found in human beta cell granules]
EAEDLQVGQVELGGGPGAGSLQPLALEGSL (listed as Homo sapiens) [SEQ ID NO: 47, C-peptide fragment C1 to C30 found in human beta cell granules]
REAEDLQVGQVELGGGPGAGSLQPL (listed as Homo sapiens) [SEQ ID NO: 31, C-peptide fragment C−1 to C24 found in human beta cell granules]
EAEDLQVGQVELGGGPGAGSLQPLALEGSLQ (listed as Homo sapiens) [SEQ ID NO: 48, C-peptide fragment C1 to C31 found in human beta cell granules]
EAEDLQVGQVELGGGPGAGSLQP (listed as Homo sapiens) [SEQ ID NO: 40, C-peptide fragment C1 to C23 found in human beta cell granules]
EAEDLQVGQVELGGGPGAGS (listed as Homo sapiens) [SEQ ID NO: 38, C-peptide fragment C1 to C20 found in human beta cell granules]
EAEDLQVGQVELGG (listed as Homo sapiens) [SEQ ID NO: 37, C-peptide fragment C1 to C14 found in human beta cell granules]
EAEDLQVGQVELGGGPGAGSLQPL (listed as Homo sapiens) [SEQ ID NO: 41, C-peptide fragment C1 to C24 found in human beta cell granules]
EAEDLQVGQVE (listed as Homo sapiens) [SEQ ID NO: 34, C-peptide fragment C1 to C11 found in human beta cell granules]
EAEDLQVGQV (listed as Homo sapiens) [SEQ ID NO: 33, C-peptide fragment C1 to C10 found in human beta cell granules]
EAEDLQVGQVELGGGPGAGSLQPLALEG (listed as Homo sapiens) [SEQ ID NO: 45, C-peptide fragment C1 to C28 found in human beta cell granules]
EAEDLQVGQVEL (listed as Homo sapiens) [SEQ ID NO: 35, C-peptide fragment C1 to C12 found in human beta cell granules]
EAEDLQVGQVELG (listed as Homo sapiens) [SEQ ID NO: 36, C-peptide fragment C1 to C13 found in human beta cell granules]
EAEDLQVGQVELGGGPGAGSLQPLA (listed as Homo sapiens) [SEQ ID NO: 42, C-peptide fragment C1 to C25 found in human beta cell granules]
REAEDLQVGQVELGGGPGAGSLQPLALEGSLQ (listed as Homo sapiens) [SEQ ID NO: 32, C-peptide fragment C−1 to C31 found in human beta cell granules]

Source: patent US20230348562A1, “Proinsulin Peptides for Type I Diabetes” (King's College London, priority 2019, published 2023)
